# Data taken from PubChem BioAssay AID624297 (National Center for Advancing Translational Sciences (NCATS), 2012).
# Screen size: about 340,000 compounds; about 6,200 (1.8%) were called active. This list was built around the results that the source calls inconclusive (neither active nor inactive); the mix of calls is not that of the screen. The call rests on the fitted dose curve; in most records, active means well fitted activation curve with a large enough effect; inconclusive means small, poorly fitted or top-dose-only effect; inactive means no such curve, though single readings can be large or run the other way. Where the call is inconclusive, the potency comes from a doubtful curve fit.
# Test: A quantitative high throughput screen for small molecules that induce DNA re-replication in SW480 colon adenocarcinoma cells. Further: nearly all actives have a fitted effect of over 55% in size.
# Conditions: Hoechst DNA content imaging, 48 h; series mostly up to 46.1 µM
# Text: H Molecular Libraries Probe Production Network [MLPCN] NIH Chemical Genomics Center [NCGC] MLPCN Grant: Fast Track K99 CA136555 Assay Provider: Melvin DePamphilis, NICHD, NIH Assay Overview Eukaryotic cells normally restrict genome duplication to once per cell division. When this process is aberrant, DNA re-replication occurs when cells reinitiate DNA replication before the first round of replication is complete. DNA re-replication induces the DNA damage response, arrests cell proliferation, and triggers apoptosis. The cell cycle components cyclin A, Cdt-1, Cdc6 and geminin are critical regulators of this process and their misregulation results in DNA re-replication in normal and cancer cells. To identify compounds that induce re-replication in normal cells, an image-based assay was used to measure DNA content of nuclei, as detected by the fluorescent DNA binding dye, Hoechst. Cell nuclei were imaged by a fluorescence scanning plate imager and compounds that induce DNA re-replication were identified by the increase of nuclei with elevated fluorescence intensity
# For screening, 250 cells in 5 uL/well were dispensed into black clear 1536-well plates (Aurora) using a solenoid-based dispenser. Following transfer of 23 nL compound or DMSO vehicle by a pin tool, the plates were incubated 48 hr at 37 C and 5% CO2. After addition of 1 uL/well Hoescht stain, the plates were incubated 40 min at 37 C, 5% CO2 and total intensity of fluorescent objects (nuclei) were enumerated by an Acumen Explorer Ex3 (TTP LabTech) fluorescence scanning plate imager (405 nm excitation, 500-530 nm emission). Keywords: NIH Roadmap, MLPCN, MLI, MLSMR, qHTS, NCGC, DNA replication, cancer
# Potency means the concentration at half of the fitted maximal effect.
row,SMILES,Potency
1,c1cnc2ncc3sccc3c2c1,active: 16.4 µM
2,COCCn1c(-c2ccc(-c3ccccc3Cl)o2)nc2c1c(=O)[nH]c(=O)n2CC(C)C,"inconclusive: 9.2 µM [activator, partial curve]"
3,FC(F)(F)c1cccc(NC(=S)N(CCCN2CCCC2)Cc2cccn2Cc2ccc(Cl)cc2)c1,"inconclusive: 5.8 µM [activator, full curve, poor fit]"
4,O=C(Nc1ccc[n+](CC(=O)c2cccc3ccccc23)c1)c1ccccc1,"inconclusive: 25.9 µM [activator, single point]"
5,O=C1Nc2ccccc2Nc2ccc([N+](=O)[O-])cc21,"inconclusive: 29.1 µM [activator, single point]"
6,COC(=O)c1ccc(C)c(NS(=O)(=O)c2ccc(OC)c(OC)c2)c1,"inconclusive: 2.06 µM [activator, partial curve, poor fit]"
7,COc1ccc(-c2csc(-n3ncc(-c4cccs4)c3N)n2)cc1,"inconclusive: 23.1 µM [activator, partial curve, poor fit]"
8,CCC(C)NC(=O)c1cccc(OCc2c(C)noc2C)c1 (configuration not stated),"inconclusive: 11.6 µM [activator, partial curve, poor fit]"
9,CSc1nnc(CCCCCCCCc2nnc(SC)o2)o1,"inconclusive: 18.4 µM [activator, single point]"
10,CC(=O)[C@]1(O)Cc2c(O)c3c(c(O)c2[C@@H](O[C@H]2C[C@H](N)[C@H](O)[C@H](C)O2)C1)C(=O)c1c(O)cccc1C3=O,inactive
11,CSCCC(NC(=O)c1ccccc1Br)C(=O)N1CCN(C/C=C/c2ccccc2)CC1 (configuration not stated),"inconclusive: 18.4 µM [activator, single point]"
12,CCOC(=O)N1CCN(CCC(=O)Nc2ccc(OC)cc2OC)CC1,inactive
13,CCN(Cc1ccccc1)Cc1c(F)cccc1F,inactive
14,COc1ccc(Oc2cn[nH]c2-c2ccc(OC)cc2O)cc1,"inconclusive: 2.91 µM [activator, partial curve]"
15,Cc1ccc2nc(N3CC(=O)Nc4ccccc43)nc(-c3ccccc3)c2c1,active: 18.4 µM
16,O=C1c2ccccc2C(=O)c2c1ccc(C(=O)N1CCCCC1)c2NCCO,inactive
17,C/C(=N\Nc1nc(-c2ccccc2O)nc2ccccc12)c1ccccc1,inactive
18,Cc1ccsc1C(=O)OCC(=O)Nc1c(C)n(C)n(-c2ccccc2)c1=O,"inconclusive: 0.184 µM [activator, full curve, poor fit]"
19,C[C@@H](NC(=O)c1nc[nH]c1C(=O)N[C@@H](CCCCNC(=O)OC(C)(C)C)C(=O)OC(C)(C)C)c1ccccc1,"inconclusive: 29.1 µM [activator, single point]"
20,O=C(/C=C/c1ccccn1)c1cc(Cl)cc(Cl)c1O,active: 16.4 µM
21,CC(Oc1ccc2c(-c3ccccc3)cc(=O)oc2c1)C(=O)NCCN1CCOCC1 (configuration not stated),"inconclusive: 1.03 µM [activator, full curve, poor fit]"
22,CCc1cc2c(=O)c(-c3ccc4c(c3)OCCO4)c(C)oc2cc1OS(C)(=O)=O,"inconclusive: 32.6 µM [activator, partial curve, poor fit]"
23,CCN(c1ccccc1)c1nc2nonc2nc1NCCO,inactive

# 3 entries out of the list, ordered by molar mass, high to low.
row,SMILES,Potency
8,CCC(C)NC(=O)c1cccc(OCc2c(C)noc2C)c1 (configuration not stated),"inconclusive: 11.6 µM [activator, partial curve, poor fit]"
23,CCN(c1ccccc1)c1nc2nonc2nc1NCCO,inactive
1,c1cnc2ncc3sccc3c2c1,active: 16.4 µM

# Random excerpt: two records from the list.
row,SMILES,Potency
19,C[C@@H](NC(=O)c1nc[nH]c1C(=O)N[C@@H](CCCCNC(=O)OC(C)(C)C)C(=O)OC(C)(C)C)c1ccccc1,"inconclusive: 29.1 µM [activator, single point]"
1,c1cnc2ncc3sccc3c2c1,active: 16.4 µM

# Next part

row,SMILES,Potency
1,O=C(COc1ccc(Br)cc1CNCCc1ccccc1)NCc1ccccc1,"inconclusive: 20.6 µM [activator, single point]"
2,CCCC(c1nnnn1CC1CCCO1)N1CCN(c2nc3ccccc3s2)CC1 (configuration not stated),"inconclusive: 35.5 µM [activator, partial curve, poor fit]"
3,CCCOC1CCCN(C(=O)c2ccc(OC3CCN(C(=O)COC)CC3)cc2)C1 (configuration not stated),"inconclusive: 14.6 µM [activator, partial curve, poor fit]"
4,O=S1(=O)CC(O)C(N=Nc2c(O)n(Cc3ccccc3)c3ccccc23)C1 (configuration not stated),"inconclusive: 5.8 µM [activator, partial curve, poor fit]"
5,CCCCCCCCC1=NCCc2c1[nH]c1ccccc21,"inconclusive: 20.6 µM [activator, single point]"
6,COCCn1c(C)cc(C(=O)CN2c3cccc4cccc(c34)S2(=O)=O)c1C,"inconclusive: 29.1 µM [activator, single point]"
7,O=[N+]([O-])c1ccc(Cl)c(S(=O)(=O)NCCc2ccccn2)c1,"inconclusive: 29.1 µM [activator, single point]"
8,Cc1nc2sc(C(=O)c3ccccc3)c(N)c2c2c1CCCC2,"inconclusive: 25.9 µM [activator, single point]"
9,Cc1ccc2[nH]c(=O)c(CN(Cc3cccs3)Cc3nnnn3CC3CCCO3)cc2c1 (configuration not stated),"inconclusive: 20.6 µM [activator, single point]"
10,Cc1ccc(C)c(OCC(O)CN2CCN(CCN3C(=O)c4cccc5cccc(c45)C3=O)CC2)c1 (configuration not stated),"inconclusive: 18.4 µM [activator, single point]"
11,COc1ccccc1NC(=O)CN1C(=O)CSC(C)C1=O (configuration not stated),"inconclusive: 4.11 µM [activator, partial curve, poor fit]"
12,CC1CCc2sc(C(=O)NCC(c3ccco3)N3CCCCC3)cc2C1 (configuration not stated),"inconclusive: 18.4 µM [activator, single point]"
13,Cc1ccccc1S(=O)(=O)Cc1ccc(C(=O)NC(C)c2ccccc2)o1 (configuration not stated),"inconclusive: 32.6 µM [activator, single point]"
14,CCOC(=O)/C(=C\c1cccc(O)c1)c1nc2sc(C)c(C)c2c(=O)[nH]1,"inconclusive: 29.1 µM [activator, single point]"
15,O=C(NN1C(=O)C2C3C=CC(C4CC34)C2C1=O)c1ccc(Br)cc1 (configuration not stated),inactive
16,COc1ccccc1-c1cc(C(F)(F)F)n2ncc(C(=O)N3CCc4ccccc4C3)c2n1,"inconclusive: 29.1 µM [activator, partial curve, poor fit]"
17,Fc1ccc(N2CCN(Cc3nnc(-c4ccccc4)o3)CC2)cc1,"inconclusive: 2.59 µM [activator, full curve]"
18,O=C(COC(=O)c1cc(-c2cccs2)nn1-c1ccccc1)Nc1ccc(F)c([N+](=O)[O-])c1,"inconclusive: 18.4 µM [activator, single point]"
19,COC(=O)c1ccc(Cl)c(NS(=O)(=O)c2ccc3c(c2)OCCO3)c1,active: 18.4 µM
20,N#CCSc1nc(-c2ccccc2)nc2ccccc12,"inconclusive: 18.4 µM [activator, partial curve, poor fit]"
21,Cc1ccc(S(=O)(=O)c2c(C)cc(C)nc2N2CCCCC2)cc1,inactive
22,O=C(O)c1ccc(N(Cc2ccccc2)S(=O)(=O)c2ccccc2)cc1,inactive
23,COCCCC/C(=N\OCCN)c1ccc(C(F)(F)F)cc1,inactive

row,SMILES,Potency
1,N=c1c2c(-c3ccccc3)c(-c3ccccc3)n(Cc3ccco3)c2ncn1CCCN1CCOCC1,"inconclusive: 16.4 µM [activator, partial curve, poor fit]"
2,CCCOc1ccccc1C1CC(=O)NC2=C1C(=O)CCC2 (configuration not stated),active: 11.6 µM
3,C=CCn1cnc2c(c1=O)c1nc3ccccc3nc1n2/N=C/c1cccc(OC)c1,inactive
4,COc1ccccc1C(=O)NCC(=O)N1CCN(c2ncccn2)CC1,inactive
5,Cc1c(Cc2ccc3c(c2)OCO3)sc(NC(=O)C(C)(C)C)c1C#N,"inconclusive: 29.1 µM [activator, single point]"
6,Cc1cc(C)cc(NC(=O)CNC(c2ccccc2)c2ccccc2)c1,"inconclusive: 9.2 µM [activator, partial curve, poor fit]"
7,C[C@@H]1CC=C[C@H]2[C@H]1C(=O)N(Cc1ccccc1)[C@H]2c1ccc(-c2ccc(N(C)C)cc2)cc1F,"inconclusive: 5.17 µM [activator, full curve, poor fit]"
8,COc1ccc2ccc3c(c2c1)N=C[C@]1(O3)N(C)c2ccccc2C1(C)C,active: 14.6 µM
9,CCCCc1ccc(NC(=O)COc2ccc(C(=O)Nc3ccccc3OCC)cc2)cc1,"inconclusive: 6.51 µM [activator, partial curve, poor fit]"
10,COc1ccc(S(=O)(=O)N(C)CC(=O)NCCC2=CCCCC2)cc1C,inactive
11,CC(=O)N/N=C/c1cc(C(C)C)cc(/C=N/NC(C)=O)c1O,active: 14.6 µM
12,COc1ccc(N2CCN(C(=S)NC(C)c3ccccc3)CC2)cc1 (configuration not stated),inactive
13,COc1ccc2nc(Sc3c([N+](=O)[O-])nc(C)n3Cc3ccccc3)[nH]c2c1,"inconclusive: 29.1 µM [activator, single point]"
14,Cc1cc(C(=O)N/N=C/c2cc(Br)cc(Br)c2OC(=O)c2cccc(F)c2)n[nH]1,active: 0.92 µM
15,O=C(c1cn(-c2ccccc2)nc1-c1ccncc1)n1nnc2ccccc21,"inconclusive: 7.31 µM [activator, partial curve, poor fit]"
16,COC(=O)[C@H](c1ccccc1Cl)N1CCc2sccc2C1,"inconclusive: 25.1 µM [activator, partial curve, poor fit]"
17,CCCOC(=O)c1ccc(NC(=O)Cc2cccs2)cc1,inactive
18,COc1ccc(S(=O)(=O)Nc2ccccc2C(=O)N2CCCCC2)cc1C,"inconclusive: 29.1 µM [activator, single point]"
19,Cn1c(SCCN2CCOCC2)nc2sc3c(c2c1=O)CCCC3,inactive
20,CC(C)(C)c1ccc(C(=O)N2CCC(NC(=O)c3ccccc3)CC2)cc1,inactive
21,Cc1cc(=O)oc2cc(OCC(=O)Nc3ccccc3C(N)=O)c(Cl)cc12,"inconclusive: 29.1 µM [activator, single point]"
